Experimental data taken from the supplement of paper PMC12823440, “Inhibitors supercharge kinase turnover through native proteolytic circuits” (Nature, 2025).
Counter-ions that a name gives are not always drawn. The list shows a part of the results. The calls rarely recur for the same compound in another form.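 In K562 cells expressing nanoluciferase-fused kinases, luminescence was recorded at 4 h intervals between 2 and 18 h, normalized as percent of control with DMSO at 100% and a positive control at 0%. A significant (2 sigma) signal drop marks a time point as decreased. The authors' rule for a hit is not shown and takes in more than the number of time points.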

The chains behind the UniProt entries cited, without tags or fusion partners. Where a name states a change or a piece, a line headed by the entry shows the natural chain unless it says otherwise.
UniProt P49137, whole entry, looked up: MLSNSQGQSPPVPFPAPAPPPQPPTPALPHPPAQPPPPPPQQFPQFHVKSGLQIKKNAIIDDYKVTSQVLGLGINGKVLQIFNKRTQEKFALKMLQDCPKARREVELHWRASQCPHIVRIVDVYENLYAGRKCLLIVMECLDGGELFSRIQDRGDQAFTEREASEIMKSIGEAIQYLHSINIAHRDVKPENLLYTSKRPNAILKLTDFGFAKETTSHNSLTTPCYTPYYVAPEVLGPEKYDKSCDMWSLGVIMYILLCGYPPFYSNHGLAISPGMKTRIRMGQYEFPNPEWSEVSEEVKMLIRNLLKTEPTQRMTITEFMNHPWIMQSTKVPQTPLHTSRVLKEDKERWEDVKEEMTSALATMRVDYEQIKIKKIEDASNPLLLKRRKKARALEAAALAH
UniProt Q9BUB5: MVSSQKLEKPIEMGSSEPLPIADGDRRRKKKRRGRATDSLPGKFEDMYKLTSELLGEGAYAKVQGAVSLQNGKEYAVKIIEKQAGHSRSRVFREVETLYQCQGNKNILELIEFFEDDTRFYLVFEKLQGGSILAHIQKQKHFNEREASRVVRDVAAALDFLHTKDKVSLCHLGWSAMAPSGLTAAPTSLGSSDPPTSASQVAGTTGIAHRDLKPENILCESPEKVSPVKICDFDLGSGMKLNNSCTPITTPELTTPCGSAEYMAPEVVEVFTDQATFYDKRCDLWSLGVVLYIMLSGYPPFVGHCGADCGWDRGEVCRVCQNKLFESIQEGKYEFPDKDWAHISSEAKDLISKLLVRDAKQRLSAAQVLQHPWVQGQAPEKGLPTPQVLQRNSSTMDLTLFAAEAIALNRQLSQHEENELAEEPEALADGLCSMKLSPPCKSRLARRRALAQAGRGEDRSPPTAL

What follows are compounds tested against MAPKAPK2 (UniProt P49137) (assay: number of time points (of 5) at which kinase-Nluc abundance scored as decreased, DMSO-normalised (count); higher = more persistent destabilization). Settings: K562; 2-18 h.

Row | Compound | number of time points
1 | C=CC(=O)N1CCC(c2ccc(C(N)=O)c(-c3ccc(Oc4ccccc4)cc3)n2)CC1 [Orelabrutinib] (2.5 µM) | 0
2 | CN1C(=O)N[C@@H](Cc2c[nH]c3c(Cl)cccc23)C1=O [Necrostatin 2 (S enantiomer)] (10 µM) | 0
3 | N#Cc1cc(-c2ccnc(Nc3ccc(N4CCOCC4)cc3)n2)ccc1OC1CCOCC1 (10 µM) | 0
4 | COc1cccc(-c2cc(=O)c3ccccc3o2)c1N (10 µM) | 0
5 | Nc1ccc(Sc2nc3ccccc3s2)c(Cl)c1 [KRAS inhibitor-9] (10 µM) | 0

The compounds below were run against MKNK1 (UniProt Q9BUB5) in the same assay as above. Settings: K562; 2-18 h.

Row | Compound | number of time points
6 | Cc1cnc(Cl)nc1-c1ccc(N(Cc2ccc(CNC(=O)C(F)F)cc2)C(=O)c2ccc(O)cc2O)cc1 (10 µM) | 0
7 | COc1cc2c(cc1OC)[C@@H]1C(=O)c3ccc4c(c3O[C@@H]1CO2)C=CC(C)(C)O4 [Deguelin] (10 µM) | 0
8 | CC(C)(CCCCCC(O)CCCCCC(C)(C)C(=O)O)C(=O)O [Bempedoic acid] (10 µM) | 0
9 | COc1cc2nnc(C(N)=O)c(Nc3ccc(C)cc3F)c2cc1N1CCN(CCO)CC1 (2.5 µM) | 0
10 | O=C(Nc1ccc(Cl)cc1)C1CN(C(=O)c2cccc(-c3ccco3)c2)CC(F)(F)C1 (stereo not drawn) (2.5 µM) | 0
11 | CC(=O)O[C@@H]1[C@@H](OC(C)=O)[C@@H](O)[C@H](Oc2c(-c3ccc(O)cc3)oc3cc(O)cc(O)c3c2=O)O[C@H]1C (10 µM) | 0
12 | COc1cc2nc(-c3cc(F)ccc3O)nc(N[C@@H]3CNC[C@H]3C(C)(C)O)c2cc1OC (2.5 µM) | 0
13 | C=CC(=O)Nc1cccc(Oc2nc(Nc3ccc(N4CCN(C)CC4)cc3OC)ncc2Cl)c1 (10 µM) | 0
14 | C=CC(=O)Nc1cc(Nc2nccc(-c3cn(C)c4ccccc34)n2)c(OCC(F)(F)F)nc1N(C)CCNC [AST5902  (trimesylate)] (2.5 µM) | 4
15 | O=C1C=CC2=C3c4cc(O)c(O)cc4CC3(O)COC2=C1O (stereo not drawn) [Hematein] (10 µM) | 0
16 | CCC(F)(F)c1cc(N2CCC(S(C)(=O)=O)CC2)nc2sc(C(N)=O)c(N)c12 (10 µM) | 0
17 | Cn1cc(C2=C(c3ccc(Cl)cc3Cl)C(=O)NC2=O)c2ccccc21 (10 µM) | 0
18 | CCOC(=O)c1c(N2CCc3ccc(OC)cc3C2)oc(C=C2C=Nc3ncccc32)c1O (10 µM) | 0
19 | O=C(COc1ccc(Cl)cc1)NC1CCC(NC(=O)COc2ccc(Cl)cc2)CC1 (stereo not drawn) [ISRIB (trans-isomer)] (10 µM) | 0
20 | COc1ccc(CCNCc2ccc(OCc3ccc(Cl)nc3)c(OC)c2)cc1OC [SBE13 (Hydrochloride)] (10 µM) | 0
21 | Cc1cccc(CC(=O)N2CCc3c2ccc(-c2cn(C)c4ncnc(N)c24)c3F)n1 (10 µM) | 0
22 | COc1cc(N2CCC(N3CCN(C)CC3)CC2)ccc1Nc1ncnc(Nc2ccccc2S(=O)(=O)C(C)C)n1 (10 µM) | 0
23 | CC(C)(Oc1ccc(Cl)cc1)C(=O)Nc1ccc(OCc2ccc(C#N)cc2)cc1 [AMPK activator 4] (10 µM) | 0
24 | Cc1cc(N2CCOCC2)ccc1Nc1nc(NC2CCCCC2)c2[nH]cnc2n1 (10 µM) | 0

Row | Compound | number of time points
25 | COC(=O)N1CCN(C2CCC(Nc3nc(Nc4cnn(C)c4)nc4ccc(CC#N)nc34)CC2)CC1 (stereo not drawn) (10 µM) | 0
26 | CN(C)CCn1cc2cc(NC(=O)c3cccc(C(F)(F)F)n3)c(C(C)(C)O)cc2n1 (10 µM) | 0
27 | CCOc1cc(N2CCC(O)CC2)ccc1Nc1ncc2c(n1)N(C1CCCC1)CCC(=O)N2C (2.5 µM) | 0
28 | CCC[C@H](C)Oc1nc(N)c2[nH]c(=O)n(CCCCCN3CCCCC3)c2n1 (10 µM) | 0
29 | Fc1ccc(-c2nc3n(c2-c2ccncc2)CCS3)cc1 (10 µM) | 0
30 | CC(ONC(=O)c1cc(C(F)(F)F)cc(C(F)(F)F)c1)C(=O)Nc1ccc(Cl)cc1 (stereo not drawn) (2.5 µM) | 0
31 | O=C(Nc1ccccc1C(=O)NC1CCCCNC1=O)c1cc2ccccc2s1 (stereo not drawn) (10 µM) | 0
32 | N#CC(=C(/N)Sc1ccccc1N)/C(C#N)=C(\N)Sc1ccccc1N (10 µM) | 0
33 | Nc1ccc(O)c(C(=O)O)c1 [5-Aminosalicylic Acid] (10 µM) | 0
34 | CNCc1ccccc1Sc1cccc2ccccc12 [IFN alpha-IFNAR-IN-1 (hydrochloride)] (10 µM) | 0
35 | CCCCNc1ncc2c(-c3ccc(F)cc3)nn(CC3CCC(N)CC3)c2n1 (stereo not drawn) (2.5 µM) | 4
36 | Cc1ncsc1-c1ccc(CNC(=O)[C@@H]2C[C@@H](O)CN2C(=O)[C@@H](NC(=O)COCCOc2ccc(-c3cc(Nc4ccc(OC(F)(F)F)cc4)ncn3)cc2)C(C)(C)C)cc1 (2.5 µM) | 2
37 | Cn1cnc2c(F)c(Nc3ccc(Br)cc3F)c(C(=O)NOCCO)cc21 [Binimetinib] (10 µM) | 0
38 | O=C1NC(=O)C(Cc2c[nH]c3c(Cl)cccc23)N1 (stereo not drawn) [Necroptosis-IN-1] (10 µM) | 0
39 | C=CC(=O)N1CCC(c2ccc(C(N)=O)c(-c3ccc(Oc4ccccc4)cc3)n2)CC1 [Orelabrutinib] (2.5 µM) | 0
40 | CN1C(=O)N[C@@H](Cc2c[nH]c3c(Cl)cccc23)C1=O [Necrostatin 2 (S enantiomer)] (10 µM) | 0
41 | N#Cc1cc(-c2ccnc(Nc3ccc(N4CCOCC4)cc3)n2)ccc1OC1CCOCC1 (10 µM) | 0
42 | COc1cccc(-c2cc(=O)c3ccccc3o2)c1N (10 µM) | 0
43 | Nc1ccc(Sc2nc3ccccc3s2)c(Cl)c1 [KRAS inhibitor-9] (10 µM) | 0
